# Laboratory results: PubChem BioAssay AID504327 (National Center for Advancing Translational Sciences (NCATS), 2011)
# Protein sequences, listed by entry. Tags and fused reporters are not part of them.
# UniProt Q92830, whole entry, looked up: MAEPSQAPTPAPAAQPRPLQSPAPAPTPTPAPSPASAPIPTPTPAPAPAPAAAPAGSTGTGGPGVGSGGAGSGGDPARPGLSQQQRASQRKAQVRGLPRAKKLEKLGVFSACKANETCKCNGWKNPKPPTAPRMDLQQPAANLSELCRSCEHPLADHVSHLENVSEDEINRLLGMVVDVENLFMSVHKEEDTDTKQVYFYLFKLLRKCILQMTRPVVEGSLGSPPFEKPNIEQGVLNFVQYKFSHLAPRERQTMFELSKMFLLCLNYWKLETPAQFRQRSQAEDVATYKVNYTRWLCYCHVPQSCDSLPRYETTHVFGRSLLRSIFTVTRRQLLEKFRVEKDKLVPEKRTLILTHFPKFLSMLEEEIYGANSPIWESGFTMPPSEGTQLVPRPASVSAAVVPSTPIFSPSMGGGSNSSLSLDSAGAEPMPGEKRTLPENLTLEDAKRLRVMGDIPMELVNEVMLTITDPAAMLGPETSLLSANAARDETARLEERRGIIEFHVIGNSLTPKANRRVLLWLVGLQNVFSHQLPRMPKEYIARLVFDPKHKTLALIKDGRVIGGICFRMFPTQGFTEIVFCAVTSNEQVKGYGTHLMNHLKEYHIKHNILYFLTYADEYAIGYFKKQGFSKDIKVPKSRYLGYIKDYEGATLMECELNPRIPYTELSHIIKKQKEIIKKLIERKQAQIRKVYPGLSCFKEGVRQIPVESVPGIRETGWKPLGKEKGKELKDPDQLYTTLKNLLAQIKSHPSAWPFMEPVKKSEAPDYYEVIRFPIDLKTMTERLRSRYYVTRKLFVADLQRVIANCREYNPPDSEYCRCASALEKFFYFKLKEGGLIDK
# “And” between values parts separate entries of the source, which are not always exact repeats. Identical values can stand only once. Hit rate of the full screen: of about 390,000 compounds, about 820 (0.21%) were called active. Inconclusive results, whose numbers are uncertain, are shown with a selection of clear calls. Calls follow the shape of the dose curve; as a rule, active = well fitted inhibition curve with a large enough effect; inconclusive = small, poorly fitted or top-dose-only effect, or another doubt; inactive = no such curve, though single readings can be large or run the other way. Potencies of inconclusive entries are doubtful fits and often do not repeat. Positions of bridges follow the written chain, without caps; N, C: chain ends. Non-standard residues stand in square brackets, D forms with d. Residues, ends and D or L forms follow the SMILES beside them. Chains are numbered I, II in the order given. ξ: configuration not given here. ξDap = NCC(N)C(=O)O
# Target: Histone acetyltransferase KAT2A (Homo sapiens) (UniProt Q92830)
# Assay: qHTS Assay for Inhibitors of GCN5L2
# Conditions: GCN5L2 HAT assay, ThioGlo1 CoA-SH fluorescence; activity change, negative = inhibition: at 58.9 µM (top of the series) unless noted
# Procedure, shortened: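 Compounds, pin-transferred from DMSO stocks, meet 20nM GCN5L2 for 15 min before the reaction begins with H3(1-25) peptide (75uM) and acetyl-CoA (70uM). Thiol-reactive ThioGlo1 reports CoA release over 20 min at room temperature.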
# % is scaled to controls: 0 for no effect and ±100 for the full control effect; potency is read from the fitted curve at half-maximal effect.
Structure (SMILES),Potency,"activity change, negative = inhibition"
CCOC(=O)N1CCN(C(=O)C2CCN(Cc3nc(-c4ccccc4C)oc3C)CC2)CC1,"inconclusive: 28.2 µM [inhibitor, single point]",
Cc1ccc(C(=O)COC(=O)CCC(=O)Nc2cc(Cl)ccc2Cl)cc1[N+](=O)[O-],"inconclusive: 39.8 µM [inhibitor, single point]",
O=C(CSc1nc2ccccc2nc1N1CCCCC1)Nc1ccc(F)cc1,"inconclusive: 1 µM [inhibitor, full curve, poor fit]",
C=CCn1c(SCC(=O)Nc2ccc(-c3nc4ccc(C)cc4s3)cc2)nnc1-c1ccccc1,"inconclusive: 4.47 µM [inhibitor, full curve]",
CCc1cccc(NC(=O)CCn2c(=O)c3cccn3c3cccnc32)c1,"inconclusive: 31.6 µM [inhibitor, single point]",
Cc1ccc(Nc2ccc3cc(S(=O)(=O)N4CCC(C)CC4)ccc3n2)c(Cl)c1,"inconclusive: 39.8 µM [inhibitor, single point]",
CCN(CC)S(=O)(=O)c1cccc(C(=O)Nc2cccc(C)c2)c1,,inconclusive: -61% [inhibitor]
COCCCN1C(=O)C(=O)/C(=C(/O)c2ccc(OCC(C)C)cc2)C1c1cccnc1 (stereo unspecified),"inconclusive: 0.501 µM [inhibitor, single point]",
CCC(=O)N(CCC(c1ccc(C)cc1)c1ccco1)Cc1ccco1 (stereo unspecified),"inconclusive: 44.7 µM [inhibitor, partial curve, poor fit]",
FC(F)(F)c1ccccc1-c1nccc(-n2ccnc2)n1,"inconclusive: 31.6 µM [inhibitor, single point]",
Cc1ccc(C(=O)NCCONC(=O)c2ccc(C)cc2)cc1,"inconclusive: 0.316 µM [inhibitor, full curve, poor fit]",
COc1ccc(-c2noc(CSc3nc(-c4ccccc4)cc(=O)[nH]3)n2)cc1,,inconclusive: -90.8% [inhibitor] [at 0.501 µM]
Cc1ccc(S(=O)(=O)Nc2ccccc2C(=O)Nc2nc(-c3ccc(F)cc3)cs2)cc1,"inconclusive: 28.2 µM [inhibitor, single point]",
Cc1coc(NC(=O)CSc2nc(-c3ccncc3)cc(C(F)(F)F)c2C#N)n1,"inconclusive: 31.6 µM [inhibitor, partial curve, poor fit]",
Cc1cc(C)nc(SCC(=O)NC2=NC(=O)C(C)S2)n1 (stereo unspecified),inactive,
COc1ccccc1NC(=O)c1ccccc1SC,"inconclusive: 0.126 µM [inhibitor, full curve, poor fit]",
COc1ccc(N2C3=[N+](CCCC3)CC2(C)O)cc1 (stereo unspecified),"inconclusive: 0.562 µM [inhibitor, full curve, poor fit]",
CCCn1c(SCC(=O)N2CCN(c3ccc(OC)cc3)CC2)nc2c1c(=O)n(C)c(=O)n2C,inactive,
O=[N+]([O-])c1ccc2c(c1)/C(=N\O)c1ccccc1-2,inactive,
COc1cc(C(=O)OCCN2CCOCC2)ccc1O,inactive,
O=C(c1ccco1)N1CCN(C(=O)c2ccc(-c3ccc([N+](=O)[O-])cc3)o2)CC1,"inconclusive: 14.1 µM [inhibitor, single point]",

Structure (SMILES),Potency,"activity change, negative = inhibition"
COc1cc(NC(=O)COc2cc(O)c3c(c2)OC(C)(C)CC3=O)cc(OC)c1,"inconclusive: 11.2 µM [inhibitor, partial curve]",
CCOc1cc(/C=C(\C#N)C(=O)Nc2cccc(C(=O)O)c2)cc(Br)c1OC(=O)c1ccc(OC)cc1,active: 25.1 µM,
COc1ccc(Br)cc1C1C(C(=O)Nc2ccc(C)cc2C)=C(C)Nc2ncnn21 (stereo unspecified),inactive,
Cc1ccc(C)c(N2CCN(C(=O)c3cn(CC(C)C)c(=O)c4c3c3ccccc3n4C)CC2)c1,inactive,
CC(C)=CCC/C(C)=C/CC/C(C)=N/O,"inconclusive: 35.5 µM [inhibitor, single point]",
COc1cc(C2C(C(C)=O)=C(O)C(=O)N2c2ccc(C)cc2)ccc1O (stereo unspecified),"inconclusive: 11.2 µM [inhibitor, partial curve, poor fit]",
CC1CCc2c(sc(NC(=O)Cn3nc(C(F)(F)F)c4c3CCCCC4)c2C#N)C1 (stereo unspecified),"inconclusive: 0.794 µM [inhibitor, single point]",
CC[C@]12c3[nH]c4cc(-c5ccco5)ccc4c3CCN1C(=O)[C@@H](CC(=O)NC/C=C(\C)CCC=C(C)C)C[C@@H]2C(=O)N1CCN(C(=O)C2CC2)CC1,"inconclusive: 35.5 µM [inhibitor, single point]",
CCCn1nc2cc(C(=O)NCCCCc3ccccc3)ccc2c1OCC,"inconclusive: 0.794 µM [inhibitor, single point]",
Cc1ccc(-n2nnnc2SCc2nc3sc(C)c(C)c3c(=O)[nH]2)cc1,inactive,
Cc1noc(C)c1COC(=O)CCCc1c[nH]c2ccccc12,"inconclusive: 35.5 µM [inhibitor, single point]",
Cc1ccc(Nc2nc3nonc3nc2Nc2cccc(C(F)(F)F)c2)cc1Cl,"inconclusive: 14.1 µM [inhibitor, partial curve]",
CN(C)c1oc(-c2cccs2)nc1C#N,"inconclusive: 10 µM [inhibitor, partial curve]",
COCCCNc1c2c3c(cccc3[nH]c1=O)C(=O)c1ccccc1-2,"inconclusive: 39.8 µM [inhibitor, single point]",
CCN(C1CCCCC1)S(=O)(=O)CCNC(=O)c1ccc2c(c1)OCO2,"inconclusive: 39.8 µM [inhibitor, single point]",
CCN(CC)C(=O)COc1coc(CN2CCN(c3ccccc3)CC2)cc1=O,"inconclusive: 8.91 µM [inhibitor, single point]",
CC(C)OC(=O)C(C)(C)Oc1ccc(C(=O)c2ccc(Cl)cc2)cc1,"inconclusive: 11.2 µM [inhibitor, single point] and inconclusive: 35.5 µM [inhibitor, single point]",
COc1cccc(N2CCN(C(=O)c3ccc(C)c(NC(=O)c4nsc5ccccc45)c3)CC2)c1,inactive,
O=C(NCCC(=O)N1CCN(Cc2c(F)cccc2Cl)CC1)c1ccc(Cl)cc1,"inconclusive: 14.1 µM [inhibitor, partial curve]",
O=C(NCc1ccncc1)c1ccc2nc(Cc3ccccc3F)oc2c1,inactive,
CN(C)C(=O)CSc1nnc(-c2cc(-c3cccs3)nc3ccccc23)o1,"inconclusive: 39.8 µM [inhibitor, single point]",

Structure (SMILES),Potency,"activity change, negative = inhibition"
Oc1[nH]c2ccc(Br)cc2c1N=NC(=S)N1CCOCC1,inactive,
COc1ccc(NC(=O)CN(C)C(=O)CCNS(=O)(=O)c2ccc(Br)cc2)cc1,"inconclusive: 7.08 µM [inhibitor, single point]",
CCOC(=O)c1sc(NC(=S)NC(=O)C2CCCC2)cc1C,inactive,
O=c1ccc2ccc(OS(=O)(=O)O)cc2o1,"inconclusive: 20 µM [inhibitor, partial curve]",
Cc1ccc2c(c1)N(C(=O)CCC(=O)NC1CCC(C)CC1)CCO2 (stereo unspecified),"inconclusive: 0.891 µM [inhibitor, partial curve, poor fit]",
Cc1cc(Cl)ccc1OCC(=O)N[C@@H](Cc1ccccc1)c1nc2ccccc2[nH]1,inactive,
Cc1ccc(C2C3=C(CC(C)(C)CC3=O)Nc3[nH]c(=S)[nH]c(=O)c32)cc1 (stereo unspecified),inactive,
O=[N+]([O-])c1ccc(COc2cccc(CNc3ccc(F)cc3)c2)cc1,"inconclusive: 39.8 µM [inhibitor, single point]",
S=C(Nc1ccc2nsnc2c1)N1CCCC1,"inconclusive: 39.8 µM [inhibitor, single point]",
COc1ccc(OC)c(NC(=S)N2c3ccccc3CC2C)c1 (stereo unspecified),"inconclusive: 0.141 µM [inhibitor, full curve, poor fit]",
CCOC(=O)c1sc(NC(=O)C(CC)OC(=O)C(CC(C)C)NC(=O)c2ccccc2)nc1C (stereo unspecified),"inconclusive: 0.501 µM [inhibitor, partial curve, poor fit]",
CC1CCN(S(=O)(=O)c2ccc3c(c2)n(C)c(=O)n3C)CC1,"inconclusive: 2.82 µM [inhibitor, partial curve, poor fit]",
Cn1cnnc1SC1CCCCC1NS(=O)(=O)c1ccccc1 (stereo unspecified),"inconclusive: 0.316 µM [inhibitor, full curve, poor fit]",
Cc1csc(C(C#N)C(=O)c2ccc(S(=O)(=O)N3CCCC3)cc2)n1 (stereo unspecified),active: 1 µM,
C1CCc2nnnn2CC1,"inconclusive: 11.2 µM [inhibitor, single point]",
"CC[C@H](C)[C@H](N)C(=O)N[C@H]1CCC(=O)NCC(C(=O)N[C@@H](Cc2ccc(O)cc2)C(=O)N[C@@H](CCCNC(=N)N)C(=O)N[C@@H](CC(C)C)C(=O)N[C@@H](CCCNC(=N)N)C(=O)N[C@@H](Cc2ccc(O)cc2)C(N)=O)NC(=O)[C@@H]2CCCN2C(=O)[C@@H](NC(=O)[C@@H](N)[C@@H](C)CC)CCC(=O)NCC(C(=O)N[C@@H](Cc2ccc(O)cc2)C(=O)N[C@@H](CCCNC(=N)N)C(=O)N[C@@H](CC(C)C)C(=O)N[C@@H](CCCNC(=N)N)C(=O)N[C@@H](Cc2ccc(O)cc2)C(N)=O)NC(=O)[C@@H]2CCCN2C1=O (stereo partly specified) (I: H-IEP[ξDap]YRLRY-NH2 / II: H-IEP[ξDap]YRLRY-NH2; amide I:2-II:4, I:4-II:2)",inactive,
COc1cc(C(=O)O)nc(OC)n1,inactive,
O=Nc1ccc2oc(=O)ccc2c1,"inconclusive: 20 µM [inhibitor, partial curve]",
CCCOc1ccc(C(=O)NNC(=S)NC(=O)c2cc(-c3ccc(Cl)cc3)nc3ccccc23)cc1,"inconclusive: 25.1 µM [inhibitor, partial curve]",
